Results reported in PMC7699256 (Molecules, 2020).
Some peptides are written in HELM: one residue between dots, names in brackets for other building blocks, links after the first $.

Assay: general procedure: Fmoc solid-phase peptide synthesis; Rink amide resin; HATU/DIPEA (CF labelling)
Conditions: whole synthesis

Row | Substance | difficulty met
1 | PEPTIDE1{Q.L.A.D.V.S.P.A.A.F.L.T.Q.Q.Q.L.L.P.F.Y.L.H.A.M.[am]}$$$$V2.0 | a side product in which deamidation of the aspartate residue occurred

Same assay, conditions: whole synthesis, RP-HPLC coupled with ESI/MS

Row | Substance | purity (crude or final not stated)
2 | PEPTIDE1{A.Y.L.Q.A.Q.Q.L.L.P.F.N.Q.L.V.R.S.P.A.A.[am]}$$$$V2.0 | ≥95%
3 | PEPTIDE1{Q.L.A.D.V.S.P.A.A.F.L.T.Q.Q.Q.L.L.P.F.Y.L.H.A.M.[am]}$$$$V2.0 | ≥70%
4 | CF-QLADVSPAAFLTQQQLLPFYLHAM | >70%
5 | CF-FNQLAALNSAAYLQQQQLLPFSQLA | >90%
6 | CF-AYLQAQQLLPFNQLVRSPAA | >90%
7 | PEPTIDE1{F.N.Q.L.A.A.L.N.S.A.A.Y.L.Q.Q.Q.Q.L.L.P.F.S.Q.L.A.[am]}$$$$V2.0 | ≥95%
